Measurements: publication doi:10.1101/2025.11.26.690669
Where two headings read alike, the source gives them in different places. These are yes or no findings as the source states them, for the method shown. Binding seen in cells or lysates may run through a third protein. Some results given as binding are weak or reduced against the parent protein; the word gives no strength.

Protein sequences, listed by entry. Tags and fused reporters are not part of them. Lines headed by an entry give the natural chain unless they say otherwise; changes in a name come on top.
UniProt P61586: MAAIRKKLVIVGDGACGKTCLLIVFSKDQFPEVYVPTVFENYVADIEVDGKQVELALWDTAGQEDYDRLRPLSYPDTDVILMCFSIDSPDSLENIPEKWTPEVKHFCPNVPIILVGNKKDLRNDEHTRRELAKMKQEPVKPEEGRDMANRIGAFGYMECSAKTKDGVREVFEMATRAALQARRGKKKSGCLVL

B1: NET1/ARHGEF8 (endogenous, human smooth muscle cells) (protein, UniProt Q7Z628 1-596)
chain: MEPELAAQKQPRPRRRSRRASGLSTEGATGPSADTSGSELDGRCSLRRGSSFTFLTPGPNWDFTLKRKRREKDDDVVSLSSLDLKEPSNKRVRPLARVTSLANLISPVRNGAVRRFGQTIQSFTLRGDHRSPASAQKFSSRSTVPTPAKRRSSALWSEMLDITMKESLTTREIRRQEAIYEMSRGEQDLIEDLKLARKAYHDPMLKLSIMSEEELTHIFGDLDSYIPLHEDLLTRIGEATKPDGTVEQIGHILVSWLPRLNAYRGYCSNQLAAKALLDQKKQDPRVQDFLQRCLESPFSRKLDLWSFLDIPRSRLVKYPLLLKEILKHTPKEHPDVQLLEDAILIIQGVLSDINLKKGESECQYYIDKLEYLDEKQRDPRIEASKVLLCHGELRSKSGHKLYIFLFQDILVLTRPVTRNERHSYQVYRQPIPVQELVLEDLQDGDVRMGGSFRGAFSNSEKAKNIFRIRFHDPSPAQSHTLQANDVFHKQQWFNCIRAAIAPFQSAGSPPELQGLPELHEECEGNHPSARKLTAQRRASTVSSVTQVEVDENAYRCGSGMQMAEDSKSLKTHQTQPGIRRARDKALSGGKRKETLV
B2: NET1/ARHGEF8 (endogenous, mouse 3T3-L1 fibroblasts) (protein, UniProt Q9Z206 1-595)
chain: MEPEPAAQKQPRPRRRSRRVSMLSEEPAAGLPADTPGPAANERCSLRRGSSFTFLTPGPHWDFTLKRKRREKDDDAVSLSSLDLKEPSNKRVRPLARVTSLANLISPVRNGAVRRFGQTIQSFTLRGDHRSPASAQKSFSRSTVPTPTKRRSSALWSEMLDINMKESLTTREIKRQEAIYELSRGEQDLIEDLKLARKAYHDPMLKLSIMSEEELTHIFGDLDAYIPLHEDLLARIGEATKPDGTVEQIGHILVNWLPGLNAYRGYCSNQLAAKALLDQKKQDPRVQDFLQRCLESPFSRKLDLWSFLDIPRSRLVKYPLLLKEILRHTPKDHRDVQLLEEAILIIQGVLSDINLKKGESECQYYINKLEYLDEKQKDPRIEASKVLLCHGELKNKSGHKLYIFLFQDILVLTRPVTRNERHLYQVYRQPIPVQELVLEDLQDGDVRMGGSFRGAFGNSDKAKNIFRVRFQDPSPGHSHTLQANDVFHKQQWFNCIRAAIAPFQRAASPLELQGLPDLHEECEENNPSAGNLRAQRRSCVVPGVMQIDEESALDCGSSVQTVEDTRNMKAQRPQPGLRRARDKAQSGGKKKETLV

Tests used:
[1] = target: GST-RhoA^G17A (nucleotide-free RhoA mutant) (UniProt P61586); test: pull-down
[2] = target: GST-RhoA^G17A (nucleotide-free RhoA mutant) (UniProt P61586); test: pull-down; remark: listed apart in the source

Binder	binding [1]	binding [2]
B1	binds	binds
B2	binds	
